Some of the results follow.
Key:
Experiment in all cases: log2 fold change, soluble protein after heating vs DMSO (PISA); higher = thermal stabilisation; K562 cells, 10 uM, 30 min; active = over 0.2 and 3.5 SD of the protein, either way, in both replicates (recomputed)
[1] = compound: COC1=CC=C(C=C1)CN2C=CC3=C2C=C(C=C3)C(=O)NO
Summary of the method: (§1)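 Soluble protein was defined as the supernatant after 21,000xg for 90 min. It came from K562 cells at 2×10^6 cells/mL given 10 μM compound for 30 min, heated in aliquots for 3 min across 48°C-58°C, pooled, and extracted in PBS with 0.5% NP-40 at 4°C, and was quantified by TMTpro 16plex LC-MS/MS with equalised channel sums. Thermal stability against control samples, from duplicates, is reported as log2 fold change.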

Chains of the proteins cited; added tags and fusions are not shown. Lines headed by an entry give the natural chain unless they say otherwise; changes in a name come on top.
UniProt P03928: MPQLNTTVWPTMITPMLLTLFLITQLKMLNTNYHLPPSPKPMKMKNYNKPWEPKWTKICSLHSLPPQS
UniProt P52701: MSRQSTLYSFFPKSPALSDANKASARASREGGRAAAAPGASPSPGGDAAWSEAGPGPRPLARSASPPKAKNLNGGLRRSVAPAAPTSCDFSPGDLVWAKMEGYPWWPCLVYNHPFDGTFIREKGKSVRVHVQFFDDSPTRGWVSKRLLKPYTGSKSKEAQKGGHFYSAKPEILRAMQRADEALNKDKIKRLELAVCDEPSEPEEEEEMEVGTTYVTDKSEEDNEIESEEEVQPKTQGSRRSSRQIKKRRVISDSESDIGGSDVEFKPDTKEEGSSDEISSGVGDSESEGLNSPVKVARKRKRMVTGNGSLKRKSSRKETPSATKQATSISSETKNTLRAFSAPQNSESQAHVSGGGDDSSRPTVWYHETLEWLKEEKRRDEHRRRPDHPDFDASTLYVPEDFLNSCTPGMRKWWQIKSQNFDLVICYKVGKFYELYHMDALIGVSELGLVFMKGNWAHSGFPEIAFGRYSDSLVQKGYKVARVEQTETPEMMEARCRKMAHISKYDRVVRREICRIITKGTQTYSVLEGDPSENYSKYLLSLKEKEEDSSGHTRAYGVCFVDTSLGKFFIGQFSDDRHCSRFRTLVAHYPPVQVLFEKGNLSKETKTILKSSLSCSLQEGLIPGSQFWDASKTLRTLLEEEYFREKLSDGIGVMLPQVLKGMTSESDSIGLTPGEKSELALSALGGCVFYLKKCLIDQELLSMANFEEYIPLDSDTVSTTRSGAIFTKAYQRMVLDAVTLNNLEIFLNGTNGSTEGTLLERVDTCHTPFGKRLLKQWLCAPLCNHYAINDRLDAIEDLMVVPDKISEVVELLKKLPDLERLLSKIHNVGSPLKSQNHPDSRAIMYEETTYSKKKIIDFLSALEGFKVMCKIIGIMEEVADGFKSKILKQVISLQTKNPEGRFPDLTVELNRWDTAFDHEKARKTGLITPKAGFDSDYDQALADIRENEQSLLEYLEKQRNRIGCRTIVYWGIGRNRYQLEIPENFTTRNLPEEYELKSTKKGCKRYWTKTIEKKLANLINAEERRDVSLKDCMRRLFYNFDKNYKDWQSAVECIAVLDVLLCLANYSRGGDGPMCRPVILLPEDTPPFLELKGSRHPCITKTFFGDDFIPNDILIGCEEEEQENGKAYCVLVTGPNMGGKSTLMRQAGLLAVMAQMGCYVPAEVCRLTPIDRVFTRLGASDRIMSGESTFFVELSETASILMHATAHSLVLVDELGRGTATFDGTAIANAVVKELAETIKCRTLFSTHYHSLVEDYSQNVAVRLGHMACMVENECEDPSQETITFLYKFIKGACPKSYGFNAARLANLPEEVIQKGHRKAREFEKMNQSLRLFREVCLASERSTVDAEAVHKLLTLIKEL
UniProt Q9H019: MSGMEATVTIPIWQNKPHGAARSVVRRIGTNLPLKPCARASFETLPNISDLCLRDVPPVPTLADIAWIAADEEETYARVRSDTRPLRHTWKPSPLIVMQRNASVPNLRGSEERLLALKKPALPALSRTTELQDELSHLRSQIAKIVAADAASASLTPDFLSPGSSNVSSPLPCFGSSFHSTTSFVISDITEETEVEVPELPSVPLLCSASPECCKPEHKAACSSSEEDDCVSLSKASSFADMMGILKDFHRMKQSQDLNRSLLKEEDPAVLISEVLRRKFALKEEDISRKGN
UniProt P49914: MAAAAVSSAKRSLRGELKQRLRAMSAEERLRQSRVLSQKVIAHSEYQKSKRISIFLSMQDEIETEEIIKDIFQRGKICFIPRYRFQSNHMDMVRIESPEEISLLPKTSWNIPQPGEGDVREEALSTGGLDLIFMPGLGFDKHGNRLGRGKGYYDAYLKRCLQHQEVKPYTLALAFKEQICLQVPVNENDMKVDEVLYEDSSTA
UniProt Q2M296: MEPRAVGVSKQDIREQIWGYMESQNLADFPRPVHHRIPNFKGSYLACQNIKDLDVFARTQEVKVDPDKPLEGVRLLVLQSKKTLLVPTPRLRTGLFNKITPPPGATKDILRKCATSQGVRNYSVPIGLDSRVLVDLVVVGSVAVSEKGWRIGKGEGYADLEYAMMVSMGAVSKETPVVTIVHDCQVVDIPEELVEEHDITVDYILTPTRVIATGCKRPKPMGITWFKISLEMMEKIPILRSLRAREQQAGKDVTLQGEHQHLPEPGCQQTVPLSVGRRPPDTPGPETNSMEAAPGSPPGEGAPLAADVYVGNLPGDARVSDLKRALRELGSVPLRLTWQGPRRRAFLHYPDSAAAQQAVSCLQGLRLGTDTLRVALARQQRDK
UniProt Q7Z6M4: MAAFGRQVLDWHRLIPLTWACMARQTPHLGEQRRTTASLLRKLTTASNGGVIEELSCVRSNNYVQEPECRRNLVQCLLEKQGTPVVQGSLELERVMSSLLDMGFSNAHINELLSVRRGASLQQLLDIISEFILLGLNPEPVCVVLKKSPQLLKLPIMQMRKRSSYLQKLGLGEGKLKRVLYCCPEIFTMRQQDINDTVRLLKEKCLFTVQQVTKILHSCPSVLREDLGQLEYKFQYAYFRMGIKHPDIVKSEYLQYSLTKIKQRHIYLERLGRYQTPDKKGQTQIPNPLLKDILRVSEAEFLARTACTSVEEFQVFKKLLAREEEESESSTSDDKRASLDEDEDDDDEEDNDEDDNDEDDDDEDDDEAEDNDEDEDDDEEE
UniProt P13640: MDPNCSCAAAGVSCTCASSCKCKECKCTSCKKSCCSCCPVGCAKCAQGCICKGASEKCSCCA
UniProt P03923, whole entry, looked up: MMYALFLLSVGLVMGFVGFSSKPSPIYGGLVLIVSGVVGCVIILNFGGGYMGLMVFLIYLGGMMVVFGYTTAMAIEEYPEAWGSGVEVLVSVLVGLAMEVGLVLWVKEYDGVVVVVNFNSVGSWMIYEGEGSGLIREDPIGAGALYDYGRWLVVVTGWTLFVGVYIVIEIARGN
UniProt Q15746, whole entry, looked up: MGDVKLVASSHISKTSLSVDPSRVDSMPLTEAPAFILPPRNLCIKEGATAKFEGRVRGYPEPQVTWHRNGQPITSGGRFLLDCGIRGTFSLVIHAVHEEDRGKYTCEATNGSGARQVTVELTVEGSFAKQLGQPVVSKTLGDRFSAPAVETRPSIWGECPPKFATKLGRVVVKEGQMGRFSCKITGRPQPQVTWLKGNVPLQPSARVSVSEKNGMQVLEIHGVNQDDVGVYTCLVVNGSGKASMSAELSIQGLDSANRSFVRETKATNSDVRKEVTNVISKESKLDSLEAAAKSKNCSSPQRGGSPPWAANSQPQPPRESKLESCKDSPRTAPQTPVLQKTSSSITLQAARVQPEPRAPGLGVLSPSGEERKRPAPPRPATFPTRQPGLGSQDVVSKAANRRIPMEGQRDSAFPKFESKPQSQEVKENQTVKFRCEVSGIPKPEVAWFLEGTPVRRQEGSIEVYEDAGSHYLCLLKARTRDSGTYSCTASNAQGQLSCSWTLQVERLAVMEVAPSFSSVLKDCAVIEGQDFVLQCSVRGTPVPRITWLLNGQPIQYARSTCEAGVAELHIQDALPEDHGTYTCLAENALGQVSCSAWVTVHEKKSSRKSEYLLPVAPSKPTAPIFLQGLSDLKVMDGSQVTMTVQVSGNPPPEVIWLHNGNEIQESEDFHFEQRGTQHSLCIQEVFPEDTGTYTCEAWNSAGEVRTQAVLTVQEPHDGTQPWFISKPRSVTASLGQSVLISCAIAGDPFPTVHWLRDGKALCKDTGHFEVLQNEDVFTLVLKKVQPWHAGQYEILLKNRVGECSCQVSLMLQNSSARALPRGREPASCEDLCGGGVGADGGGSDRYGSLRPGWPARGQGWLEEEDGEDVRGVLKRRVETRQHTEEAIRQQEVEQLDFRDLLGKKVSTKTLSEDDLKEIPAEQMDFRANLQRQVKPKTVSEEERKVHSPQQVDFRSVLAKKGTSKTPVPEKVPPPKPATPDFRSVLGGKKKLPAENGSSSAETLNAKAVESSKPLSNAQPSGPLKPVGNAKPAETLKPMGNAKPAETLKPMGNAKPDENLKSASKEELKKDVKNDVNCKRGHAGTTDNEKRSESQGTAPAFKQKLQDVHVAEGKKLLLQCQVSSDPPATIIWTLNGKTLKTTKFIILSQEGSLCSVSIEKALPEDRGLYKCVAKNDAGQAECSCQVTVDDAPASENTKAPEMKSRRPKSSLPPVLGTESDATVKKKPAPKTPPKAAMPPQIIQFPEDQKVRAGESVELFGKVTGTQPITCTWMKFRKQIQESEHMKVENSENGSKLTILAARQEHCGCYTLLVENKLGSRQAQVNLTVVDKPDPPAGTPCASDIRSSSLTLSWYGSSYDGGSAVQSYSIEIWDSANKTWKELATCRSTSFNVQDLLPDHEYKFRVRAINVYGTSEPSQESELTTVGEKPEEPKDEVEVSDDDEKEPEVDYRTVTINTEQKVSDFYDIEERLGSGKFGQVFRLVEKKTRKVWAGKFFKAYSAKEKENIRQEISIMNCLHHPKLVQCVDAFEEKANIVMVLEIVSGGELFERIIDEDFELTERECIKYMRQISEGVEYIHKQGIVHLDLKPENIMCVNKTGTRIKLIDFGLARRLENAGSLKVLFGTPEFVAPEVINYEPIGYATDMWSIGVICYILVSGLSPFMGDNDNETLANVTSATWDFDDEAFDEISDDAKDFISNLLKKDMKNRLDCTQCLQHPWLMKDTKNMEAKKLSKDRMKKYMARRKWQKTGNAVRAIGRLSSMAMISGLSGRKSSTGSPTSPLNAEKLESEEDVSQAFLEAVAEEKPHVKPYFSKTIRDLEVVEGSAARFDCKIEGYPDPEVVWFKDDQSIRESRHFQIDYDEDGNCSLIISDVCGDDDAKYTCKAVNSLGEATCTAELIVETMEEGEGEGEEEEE
UniProt P00846: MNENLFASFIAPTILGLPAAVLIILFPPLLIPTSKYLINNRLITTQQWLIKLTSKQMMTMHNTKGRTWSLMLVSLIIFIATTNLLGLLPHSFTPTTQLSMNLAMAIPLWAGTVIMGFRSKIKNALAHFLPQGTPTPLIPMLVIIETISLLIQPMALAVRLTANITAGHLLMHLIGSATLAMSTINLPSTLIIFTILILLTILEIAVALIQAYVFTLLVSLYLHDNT

filanesib = compound: CON(C)C(=O)N1N=C(c2cc(F)ccc2F)S[C@@]1(CCCN)c1ccccc1 [filanesib]
Summary of the method: as §1

idasanutlin = compound: COc1cc(C(=O)O)ccc1NC(=O)[C@@H]1N[C@@H](CC(C)(C)C)[C@](C#N)(c2ccc(Cl)cc2F)[C@H]1c1cccc(Cl)c1F [idasanutlin]
Summary of the method: as §1

alisertib = compound: COc1cc(Nc2ncc3c(n2)-c2ccc(Cl)cc2C(c2c(F)cccc2OC)=NC3)ccc1C(=O)O [alisertib]
Summary of the method: as §1

gefitinib = compound: COc1cc2ncnc(Nc3ccc(F)c(Cl)c3)c2cc1OCCCN1CCOCC1 [gefitinib]
Summary of the method: as §1

[2] = compound: COc1cccc2cc(-c3nc([C@H]4CC[C@H](C(=O)O)CC4)n4ncnc(N)c34)[nH]c12
Summary of the method: as §1

pictilisib = compound: CS(=O)(=O)N1CCN(Cc2cc3nc(-c4cccc5[nH]ncc45)nc(N4CCOCC4)c3s2)CC1 [pictilisib]
Summary of the method: as §1

[3] = compound: CS(=O)(=O)c1ccc(-c2cnc(N)c(C(=O)Nc3ccccc3)n2)cc1
Summary of the method: as §1

crizotinib = compound: C[C@@H](Oc1cc(-c2cnn(C3CCNCC3)c2)cnc1N)c1c(Cl)ccc(F)c1Cl [crizotinib]
Summary of the method: as §1

[4] = compound: C[C@@H]1COCCN1C2=NC(=NC(=C2)C3(CC3)S(=O)(=O)C)C4=C5C=CNC5=CC=C4
Summary of the method: as §1

gandotinib = compound: Cc1cc(Nc2cc(CN3CCOCC3)c3nc(C)c(Cc4ccc(Cl)cc4F)n3n2)n[nH]1 [gandotinib]
Summary of the method: as §1

tozasertib = compound: Cc1cc(Nc2cc(N3CCN(C)CC3)nc(Sc3ccc(NC(=O)C4CC4)cc3)n2)n[nH]1 [tozasertib]
Summary of the method: as §1

doramapimod = compound: Cc1ccc(-n2nc(C(C)(C)C)cc2NC(=O)Nc2ccc(OCCN3CCOCC3)c3ccccc23)cc1 [doramapimod]
Summary of the method: as §1

zotarolimus = compound: CO[C@H]1C[C@@H]2CC[C@@H](C)[C@@](O)(O2)C(=O)C(=O)N2CCCC[C@H]2C(=O)O[C@H]([C@H](C)C[C@@H]2CC[C@H](n3cnnn3)[C@H](OC)C2)CC(=O)[C@H](C)/C=C(\C)[C@@H](O)[C@@H](OC)C(=O)[C@H](C)C[C@H](C)/C=C/C=C/C=C/1C [zotarolimus]
Summary of the method: as §1

[5] = compound: COc1cc2nc(-c3cc(F)ccc3O)nc(N[C@@H]3CNC[C@H]3C(C)(C)O)c2cc1OC
Summary of the method: as §1

lapatinib = compound: CS(=O)(=O)CCNCc1ccc(-c2ccc3ncnc(Nc4ccc(OCc5cccc(F)c5)c(Cl)c4)c3c2)o1 [lapatinib]
Summary of the method: as §1

[6] = compound: C[C@H](C1=CC=C(C=C1)C(=O)NC2=C3C=CNC3=NC=C2)N
Summary of the method: as §1

[7] = compound: Cc1cc(SCc2sc(-c3ccc(C(F)(F)F)cc3)nc2C)ccc1OCC(=O)O
Summary of the method: as §1

ispinesib = compound: Cc1ccc(C(=O)N(CCCN)[C@@H](c2nc3cc(Cl)ccc3c(=O)n2Cc2ccccc2)C(C)C)cc1 [ispinesib]
Summary of the method: as §1

duvelisib = compound: C[C@H](Nc1ncnc2nc[nH]c12)c1cc2cccc(Cl)c2c(=O)n1-c1ccccc1 [duvelisib]
Summary of the method: as §1

Target	log2 fold change [1]	log2 fold change (filanesib)	log2 fold change (idasanutlin)	log2 fold change (alisertib)	log2 fold change (gefitinib)	log2 fold change [2]	log2 fold change (pictilisib)	log2 fold change [3]	log2 fold change (crizotinib)	log2 fold change [4]	log2 fold change (gandotinib)	log2 fold change (tozasertib)	log2 fold change (doramapimod)	log2 fold change (zotarolimus)	log2 fold change [5]	log2 fold change (lapatinib)	log2 fold change [6]	log2 fold change [7]	log2 fold change (ispinesib)	log2 fold change (duvelisib)
MT-ATP8 (UniProt P03928)	inactive: 0.103	inactive: 0.005	inactive: 0.038	inactive: 0.044	inactive: -0.017	inactive: 0.118	inactive: 0.076	inactive: -0.042	inactive: 0.036	inactive: 0.254	inactive: -0.06	inactive: -0.012	inactive: -0.1							
MRPS35 (UniProt P82673)	inactive: 0.018	inactive: 0.024	inactive: -0.168	inactive: -0.04	inactive: -0.054	inactive: -0.13	inactive: -0.021	inactive: 0.004	inactive: -0.043	inactive: 0.016	inactive: -0.039		inactive: 0.005	inactive: 0.051	inactive: 0.026	inactive: 0.022	inactive: 0.166	inactive: 0.101	active: -0.277	
MSH6 (UniProt P52701)	inactive: 0.09	inactive: -0.154	inactive: -0.003	inactive: 0.75	inactive: 0.068	inactive: -0.04	inactive: -0.026	inactive: 0.075	inactive: -0.427	inactive: 0.152	inactive: -0.196		inactive: -0.053	inactive: 0.088	inactive: -0.017	inactive: 0.008	inactive: -0.018	inactive: 0.185	inactive: -0.087	
MTFR1L (UniProt Q9H019)	inactive: 0.036	inactive: -0.09	inactive: -0.04		inactive: 0.083		inactive: 0.011	inactive: 0.059	inactive: -0.162	inactive: -0.088	inactive: -0.123		inactive: 0.042	inactive: 0.037	inactive: -0.111	inactive: 0.044	inactive: 0.153	inactive: 0.039	inactive: -0.329	
MRPS9 (UniProt P82933)	inactive: 0.009	inactive: 0.007	inactive: -0.16	inactive: 0.076	inactive: 0.084	inactive: 0.016	inactive: -0.049	inactive: -0.001	inactive: 0.011	inactive: 0.036	inactive: -0.054		inactive: 0.031	inactive: 0.065	inactive: -0.021	inactive: 0.096	inactive: 0.202	inactive: 0.086	active: -0.344	
MTHFS (UniProt P49914)	inactive: 0.032	inactive: -0.023	inactive: -0.006	inactive: -0.065	inactive: 0.053	inactive: 0.052	inactive: 0.016	inactive: 0.103	inactive: -0.026	inactive: 0.117	inactive: -0.021		inactive: 0.013	inactive: -0.02	inactive: 0.041	inactive: 0.028	inactive: -0.098	inactive: 0.037	inactive: 0.046	
MRPS21 (UniProt P82921)	inactive: 0.007	inactive: 0.032	inactive: -0.293	inactive: 0.043	inactive: 0.019	inactive: 0.021		inactive: 0.146	inactive: -0.128	inactive: 0.07			inactive: 0.037	inactive: 0.026	inactive: -0.053	inactive: 0.261	inactive: 0.209	inactive: 0.16	inactive: -0.239	
MTHFSD isoform 3 (UniProt Q2M296)	inactive: -0.208	inactive: -0.087	inactive: 0.091	inactive: -0.614		inactive: -0.139	inactive: -0.132	inactive: -0.036	inactive: 0.087		inactive: -0.075	inactive: -0.053	inactive: 0.167	inactive: -0.093	inactive: -0.192	inactive: 0	inactive: 0.113	inactive: -0.025	inactive: -0.092	inactive: -0.132
MRPS22 (UniProt P82650)	inactive: 0.041	inactive: 0.05	active: -0.301	inactive: 0.015	inactive: -0.017	inactive: -0.019	inactive: -0.03	inactive: -0.014	inactive: 0.037	inactive: 0.086	inactive: 0.008		inactive: 0.002	inactive: 0.071	inactive: 0.019	inactive: 0.038	inactive: 0.055	inactive: 0.081	active: -0.258	
MRPS16 (UniProt Q9Y3D3)	inactive: -0.102	inactive: 0.044	active: -0.348	inactive: 0.02	inactive: -0.045	inactive: -0.011	inactive: -0.03	inactive: 0.061	inactive: 0.014	inactive: 0.028	inactive: -0.031		inactive: 0.001	inactive: 0.04	inactive: -0.054	inactive: 0.039	inactive: 0.159		inactive: -0.266	
MTERF4 (UniProt Q7Z6M4)	inactive: 0.1	inactive: 0.063	inactive: -0.068	inactive: 0.149	inactive: 0.016	inactive: -0.108		inactive: 0.03	inactive: 0.094	inactive: 0.18		inactive: -0.005	inactive: 0.043	inactive: -0.076	inactive: 0.244	inactive: 0.118	inactive: 0.034	inactive: 0.12	inactive: 0.301	inactive: -0.177
MRPS5 (UniProt P82675)	inactive: -0.06	inactive: 0.078	active: -0.37	inactive: 0.021	inactive: -0.026	inactive: 0.02	inactive: -0.026	inactive: 0.123	inactive: -0.061	inactive: 0.125	inactive: -0.08		inactive: 0.071	inactive: 0.091	inactive: 0.015	inactive: 0.054	inactive: 0.169	inactive: 0.131	active: -0.451	
MT1G (UniProt P13640)	inactive: 0.333	inactive: 0.085	inactive: 0.148	inactive: -0.011	inactive: -0.055	inactive: 0.103	inactive: 0.089	inactive: -0.103	inactive: 0.047		inactive: -0.005	inactive: 0.009	inactive: -0.141	inactive: -0.05	inactive: -0.059	inactive: 0.071	inactive: -0.081	inactive: -0.039	inactive: 0.134	inactive: -0.074
MT-ND6 (UniProt P03923)	inactive: -0.184	inactive: 0.186	inactive: 0.234	inactive: -0.004	inactive: 0.023	inactive: 0.101		inactive: -0.095	inactive: 0.031			inactive: -0.077	inactive: 0.135	inactive: 0.055			inactive: 0	inactive: -0.248		inactive: 0.206
MYLK (UniProt Q15746)	inactive: -0.293	inactive: 0.041		inactive: -0.095	inactive: 0.342	inactive: 0.16	inactive: 0.098	inactive: 0.279	inactive: 0.027		inactive: -0.018		active: 1.42	inactive: 0.01	inactive: 0.043	inactive: 0.06	inactive: 0.107	inactive: 0.04	inactive: -0.054	
MRPS18B (UniProt Q9Y676)	inactive: 0.011	inactive: 0.065	inactive: -0.205	inactive: 0.069	inactive: 0.078	inactive: 0.018	inactive: -0.106	inactive: -0.187	inactive: -0.047	inactive: 0.075	inactive: -0.028		inactive: 0.029	inactive: 0.035	inactive: 0.024	inactive: -0.005	inactive: 0.145	inactive: 0.157	active: -0.397	
MT-ATP6 (UniProt P00846)	inactive: -0.018	inactive: -0.036	inactive: -0.084	inactive: -0.05	inactive: 0.05	inactive: 0.055	inactive: 0.208	inactive: 0.041	inactive: 0.355	inactive: 0.225	inactive: 0.143		inactive: -0.038	inactive: -0.022	inactive: 0.133	inactive: -0.105	inactive: 0.135	inactive: -0.081	inactive: 0.076	
MTMR1 (UniProt Q13613)	inactive: 0.065	inactive: 0.152	inactive: 0.079	inactive: -0.189		inactive: 0.015	inactive: 0.109	inactive: -0.092	inactive: -0.213	inactive: 0.11	inactive: -0.258	inactive: 0.041	inactive: 0.125	inactive: -0.007	inactive: 0.054	inactive: 0.015	inactive: 0.083	inactive: 0.035	inactive: -0.072	inactive: -0.061

Just log2 fold change (ispinesib) and log2 fold change (gandotinib) (two entries from above):
Target | log2 fold change (ispinesib) | log2 fold change (gandotinib)
MT-ATP8 (UniProt P03928) |  | inactive: -0.06
MRPS35 (UniProt P82673) | active: -0.277 | inactive: -0.039
